Results published in patent US6114537A, “Process for scavenging thiols” (Apotex Inc., priority 1997, dated 2000).
At least one compound was matched to its structure with a doubt left.

Chains of the proteins cited; added tags and fusions are not shown. Residues count along the entry.
UniProt A5HII1, 127-380: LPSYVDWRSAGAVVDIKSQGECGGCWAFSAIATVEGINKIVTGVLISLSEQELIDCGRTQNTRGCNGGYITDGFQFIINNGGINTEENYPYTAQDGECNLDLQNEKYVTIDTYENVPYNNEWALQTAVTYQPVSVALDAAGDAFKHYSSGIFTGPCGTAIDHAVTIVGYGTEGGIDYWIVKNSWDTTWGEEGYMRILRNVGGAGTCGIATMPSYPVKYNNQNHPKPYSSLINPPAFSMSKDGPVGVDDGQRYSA

Tests used:
actinidin [1] = biological target: T1, actinidin (Actinidia deliciosa, UniProt A5HII1); experiment: Crystal structure determination of T11AA/actinidin complex; format: binding, Kiwifruit; details: catalytic cysteine
T1 construct: from tissue; host or cells: homogenized Kiwifruit

actinidin [2] = biological target: T1, actinidin; experiment: Actinidin enzymatic activity in actinidin T11AA preparation and crystals; format: biochemical, Kiwifruit; details: actinidin T11AA preparation and redissolved actinidin T11AA crystals

## COc1nsc(NC(=O)N[C@@H](CC(C)C)C(=O)NCCC(C)C)n1 [Example T11AA]
Actinidin [1]
  covalent reaction with actinidin (electron density): reacted covalently
Actinidin [2]
  inhibition of enzymatic activity: complete inhibition of enzymatic activity
